{
  "source": "patent US20210235699A1",
  "about": "“Adjuvant Compositions Comprising a Tetramethylguanidine and a 4-Isothiazolin-3-One” (Lonza, LLC, priority 2018, published 2021)",
  "key": {"[1]": {"tested_on": "combined bacterial test inoculum: Acinetobacter calcoaceticus, Escherichia coli, Pseudomonas aeruginosa, Enterobacter cloacae", "assay": "Bacterial challenge test (ASTM D2574-97, modified) in standard water based interior paint", "assay_type": "cell-based", "conditions": "in combination with BIT and BBIT, Tables 3 and 5", "procedure": "(§1) The following bacterial and fungal challenge tests were performed to ascertain whether low concentrations of 4-isothiazolin-3-one biocidal active compounds, pyrithione, coumarin or guanidine adjuvant are sufficient to prevent microbial contamination of final products when deliberately inoculated with spoilage microbes.\n(§2) The tests were performed according to ASTM standard D2574-97 (Standard Test Method for Resistance of Emulsion Paints in the Container to Attack by Microorganisms, ASTM International, West Conshohocken, Pa.), with higher inoculation volumes and frequency. A standard water based interior paint was used as the test substrate. Sample sizes of 20 g test substrate were used and the test samples were prepared in a sterile 30 mL square Nalgene bottle. […]\n(§3) The efficacy of the added agent in each sample was monitored by means of a streak plate test after 24 hours (all inoculations) and 72 hours of inoculation (first and second inoculation). At 72 hours of the third inoculation performed, a dilution plate count was performed in order to obtain a quantitative measurement of contamination (cfu/mL). […] For the streak plate tests, bacterial samples were streaked on Tryptic Soy Agar (TSA) and incubated for 48 hours at 30° C. before reading. Fungal samples were streaked on Potato Dextrose Agar (PDA) and incubated for 5 days at 25° C. before reading. […]"}, "[2]": {"tested_on": "fungal test inoculum: Aspergillus niger, Penicillium funiculosum, Candida albicans", "assay": "Fungal challenge test (ASTM D2574-97, modified) in standard water based interior paint", "assay_type": "cell-based", "conditions": "in combination with BIT and BBIT, Tables 4 and 6", "procedure": "as §1\nas §2, with “substrate.” for “substrate. Sample sizes of 20 g test substrate were used and the test samples were prepared in a sterile 30 mL square Nalgene bottle.”\nFungal lawns were grown on Potato Dextrose Agar (PDA) or Sabouraud Dextrose Agar (SAB). […] The decanted spore suspension was counted using a hemocytometer. Once the spore counts were determined, each suspension was diluted in order to obtain 10^6 spore/mL. […]\nas §3, with “reading.” for “reading. Fungal samples were streaked on Potato Dextrose Agar (PDA) and incubated for 5 days at 25° C. before reading.”"}},
  "note": "Where a name gives a salt, the structure may show the parent alone. For at least one compound, name, drawing or mass did not settle the structure.",
  "data": [
    {"molecule": "CCCCCCCCCCCCNC(=N)N", "note": "[dodecylguanidine HCl, Dodecylguanidine HCl]", "values": [
      {"measurement": "effect of guanidine on bactericidal activity of 4-isothiazolin-3-ones (in words)", "setting": "[1]", "result": "not achieved"},
      {"measurement": "effect of guanidine on fungicidal activity of 4-isothiazolin-3-ones (in words)", "setting": "[2]", "result": "not achieved"}
    ]}
  ]
}
